In PMC8053200:
At least one result comes from cells or an extract, where the contact may be indirect. For some of these results: No signal at the amounts used counts as a negative. For some of these results: Protein sequences can lack the tags named with them. For some of these results: Construct, isoform or probe ends are uncertain for at least one entry.

Protein sequences, listed by entry. Tags and fused reporters are not part of them.
UniProt Q04206, whole entry: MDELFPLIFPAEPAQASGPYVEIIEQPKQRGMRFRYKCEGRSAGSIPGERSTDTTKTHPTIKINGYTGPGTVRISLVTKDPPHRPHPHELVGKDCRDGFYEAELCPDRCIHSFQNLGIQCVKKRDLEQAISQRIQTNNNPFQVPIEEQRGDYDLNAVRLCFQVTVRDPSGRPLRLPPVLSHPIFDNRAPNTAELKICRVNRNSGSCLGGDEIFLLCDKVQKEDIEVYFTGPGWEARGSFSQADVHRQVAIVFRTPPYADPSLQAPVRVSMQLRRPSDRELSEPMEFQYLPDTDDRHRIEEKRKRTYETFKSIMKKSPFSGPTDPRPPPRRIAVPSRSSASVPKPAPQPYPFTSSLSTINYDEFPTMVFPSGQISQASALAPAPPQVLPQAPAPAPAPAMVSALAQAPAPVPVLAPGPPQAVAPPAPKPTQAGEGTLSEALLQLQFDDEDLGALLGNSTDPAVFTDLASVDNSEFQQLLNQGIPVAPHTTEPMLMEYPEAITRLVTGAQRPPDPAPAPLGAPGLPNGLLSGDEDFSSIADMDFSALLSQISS

Key:
[1] = biological target: RelA (p65) (human (umbilical cord blood-derived EPCs)) (UniProt Q04206); test: EMSA with antibody (anti-RelA dissipated the specific band); conditions: untreated EPC nuclear extract, band eliminated by 50-200x unlabeled probe; LightShift Chemiluminescent EMSA Kit per manufacturer (buffer, salt, pH not stated); nuclear extract with probe 20 min at room temperature; protein in an extract; label: biotin at both 5' and 3' ends
[2] = biological target: RelA (p65) (human (umbilical cord blood-derived EPCs)) (UniProt Q04206); test: pull-down (DAPA) with immunoblot; conditions: untreated EPC nuclear extract; protein in an extract; label: biotin at both 5' and 3' ends
[3] = biological target: p-RelA (phosphorylated RelA) (human (umbilical cord blood-derived EPCs)) (UniProt Q04206); test: pull-down (DAPA) with immunoblot; conditions: untreated EPC nuclear extract; protein in an extract; label: biotin at both 5' and 3' ends
[4] = biological target: T1, p50 (NF-kB1) (human (umbilical cord blood-derived EPCs)) (UniProt P19838); test: pull-down (DAPA) with immunoblot; conditions: untreated EPC nuclear extract; protein in an extract; label: biotin at both 5' and 3' ends
T1 sequence (looked up, limits assumed): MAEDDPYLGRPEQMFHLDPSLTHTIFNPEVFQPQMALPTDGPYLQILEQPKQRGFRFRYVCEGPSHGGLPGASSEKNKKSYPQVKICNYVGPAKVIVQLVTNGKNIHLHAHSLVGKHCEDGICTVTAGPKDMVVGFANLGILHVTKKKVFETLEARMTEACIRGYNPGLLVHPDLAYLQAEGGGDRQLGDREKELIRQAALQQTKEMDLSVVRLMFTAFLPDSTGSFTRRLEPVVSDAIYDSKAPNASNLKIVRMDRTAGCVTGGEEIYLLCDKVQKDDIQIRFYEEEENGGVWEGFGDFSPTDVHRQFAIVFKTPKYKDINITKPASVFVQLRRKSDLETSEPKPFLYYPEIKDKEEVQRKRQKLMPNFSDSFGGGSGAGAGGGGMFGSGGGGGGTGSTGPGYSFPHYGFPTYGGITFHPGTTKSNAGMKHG

## CAGGGTCCCCTGGGCTTCCCAAGCCGCGCACCTCT (double strand) [CXCR4-biotin probe (CXCR4 promoter -130 to -164)]
[1]
  binding result: binds
[2]
  binding result: binds
[3]
  binding result: no binding
[4]
  binding result: no binding
